These are yes or no findings as the source states them, for the method shown. Binding seen in cells or lysates may run through a third protein. Some entries that bind do so weakly or less than the wild type. Sequences can lack the tags named with a protein.

The chains behind the UniProt entries cited, without tags or fusion partners.
UniProt Q61879: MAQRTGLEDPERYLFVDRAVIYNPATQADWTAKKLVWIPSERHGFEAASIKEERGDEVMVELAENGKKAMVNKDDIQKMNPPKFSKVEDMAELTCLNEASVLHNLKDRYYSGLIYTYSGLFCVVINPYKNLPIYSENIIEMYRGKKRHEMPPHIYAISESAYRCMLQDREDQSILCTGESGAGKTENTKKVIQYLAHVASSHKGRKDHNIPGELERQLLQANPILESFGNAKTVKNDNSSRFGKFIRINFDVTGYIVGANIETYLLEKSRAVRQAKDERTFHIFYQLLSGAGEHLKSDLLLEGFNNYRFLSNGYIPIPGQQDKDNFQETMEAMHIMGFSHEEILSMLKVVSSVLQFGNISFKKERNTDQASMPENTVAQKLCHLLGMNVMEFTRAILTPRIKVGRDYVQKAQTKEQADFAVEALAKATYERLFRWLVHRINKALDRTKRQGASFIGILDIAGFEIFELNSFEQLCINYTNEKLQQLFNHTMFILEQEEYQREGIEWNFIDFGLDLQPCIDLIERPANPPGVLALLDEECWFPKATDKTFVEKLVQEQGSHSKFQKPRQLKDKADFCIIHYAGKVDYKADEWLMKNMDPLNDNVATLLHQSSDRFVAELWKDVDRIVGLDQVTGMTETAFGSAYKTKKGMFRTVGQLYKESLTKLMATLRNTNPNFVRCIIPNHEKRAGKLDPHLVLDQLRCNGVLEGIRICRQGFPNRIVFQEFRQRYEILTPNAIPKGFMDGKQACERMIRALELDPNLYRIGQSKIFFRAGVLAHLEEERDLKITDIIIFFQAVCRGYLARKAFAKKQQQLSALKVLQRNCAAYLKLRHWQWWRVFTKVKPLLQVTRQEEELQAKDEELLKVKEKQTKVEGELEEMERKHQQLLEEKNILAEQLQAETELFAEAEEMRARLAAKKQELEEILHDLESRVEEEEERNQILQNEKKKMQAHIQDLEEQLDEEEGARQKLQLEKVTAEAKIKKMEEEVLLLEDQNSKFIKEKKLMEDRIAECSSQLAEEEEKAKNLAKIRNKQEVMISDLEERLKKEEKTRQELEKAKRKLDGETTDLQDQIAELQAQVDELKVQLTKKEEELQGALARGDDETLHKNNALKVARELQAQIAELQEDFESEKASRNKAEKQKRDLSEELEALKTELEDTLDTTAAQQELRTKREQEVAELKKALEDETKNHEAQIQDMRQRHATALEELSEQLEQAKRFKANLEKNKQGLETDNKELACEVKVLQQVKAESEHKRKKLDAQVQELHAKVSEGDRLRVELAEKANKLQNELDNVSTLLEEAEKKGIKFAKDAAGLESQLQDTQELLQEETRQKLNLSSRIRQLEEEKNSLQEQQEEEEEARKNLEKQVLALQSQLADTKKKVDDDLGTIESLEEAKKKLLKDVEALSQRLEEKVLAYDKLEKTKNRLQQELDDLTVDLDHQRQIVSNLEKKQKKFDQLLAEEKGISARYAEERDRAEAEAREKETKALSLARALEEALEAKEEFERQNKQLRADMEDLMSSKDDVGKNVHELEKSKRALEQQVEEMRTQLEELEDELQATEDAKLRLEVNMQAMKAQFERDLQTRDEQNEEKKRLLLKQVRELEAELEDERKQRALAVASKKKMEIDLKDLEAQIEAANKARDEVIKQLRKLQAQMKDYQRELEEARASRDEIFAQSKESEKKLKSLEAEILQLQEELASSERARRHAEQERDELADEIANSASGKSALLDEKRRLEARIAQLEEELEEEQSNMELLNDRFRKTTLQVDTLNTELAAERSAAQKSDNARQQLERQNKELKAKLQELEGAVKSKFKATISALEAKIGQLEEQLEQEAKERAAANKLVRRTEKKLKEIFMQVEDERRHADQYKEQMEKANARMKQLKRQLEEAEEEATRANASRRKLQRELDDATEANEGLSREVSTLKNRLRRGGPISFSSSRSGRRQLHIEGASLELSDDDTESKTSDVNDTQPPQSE

Among the data in paper PMC8875441 are binding values, retold here.

The target in experiment [1] is T1, insulin-dependent glucose transporter 4 (GLUT4) (mouse (endogenous in C57bl/6J visceral adipose tissue and in 3T3-L1)) (UniProt P14142).
T1 sequence: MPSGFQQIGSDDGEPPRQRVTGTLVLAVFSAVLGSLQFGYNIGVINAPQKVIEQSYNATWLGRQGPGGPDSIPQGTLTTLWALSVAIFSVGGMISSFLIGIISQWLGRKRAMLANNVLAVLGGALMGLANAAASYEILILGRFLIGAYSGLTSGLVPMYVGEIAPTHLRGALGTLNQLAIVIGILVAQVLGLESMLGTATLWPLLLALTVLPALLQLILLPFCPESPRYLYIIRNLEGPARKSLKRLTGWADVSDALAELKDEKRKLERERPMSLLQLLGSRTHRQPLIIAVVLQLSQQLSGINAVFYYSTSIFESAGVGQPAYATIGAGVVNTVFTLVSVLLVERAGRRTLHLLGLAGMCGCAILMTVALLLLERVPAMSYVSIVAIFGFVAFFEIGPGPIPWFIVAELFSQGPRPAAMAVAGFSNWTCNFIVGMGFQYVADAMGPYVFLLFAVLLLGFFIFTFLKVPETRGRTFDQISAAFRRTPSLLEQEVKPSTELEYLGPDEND
The experiment is described as follows: co-IP; differentiated 3T3-L1 whole-cell lysates (200 µg; 50 mM Tris pH 7.5, 150 mM NaCl, 1 mM EDTA, 1% NP-40); immunoprecipitation with anti-GLUT4 antibody and Protein A/G Plus Agarose overnight; western blot for MYH10; also done +/- 30 min insulin induction (more complex after insulin) and with or without 50 µM PKCζ pseudo-substrate inhibitor (fewer complexes with inhibitor).

For experiment [2], the target named is T1, insulin-dependent glucose transporter 4 (GLUT4) (mouse (endogenous in C57bl/6J visceral adipose tissue and in 3T3-L1)). The experiment is described as follows: co-IP; murine visceral adipose tissue preparations; immunoprecipitation with anti-GLUT4 antibody and Protein A/G Plus Agarose overnight; western blot for MYH10.

As to “non-muscle myosin 10 (MYH10) (from UniProt Q61879 1-1976)”, the binding result in experiment [1] and in experiment [2] was “binds” each time.
